# Data: the supplement of paper PMC8728848
# The other results are listed elsewhere or left out.
# What was measured:
# Experiment in all cases: glycan array binding signal (z-score within array); higher = stronger binding
# Settings in all cases: glycan notation: IUPAC condensed, linker removed
# [1] = molecular target: Neu5Ac(a2-3)Gal(b1-4)GlcNAc(b1-2)[Neu5Ac(a2-3)Gal(b1-4)GlcNAc(b1-4)]Man(a1-3)[GlcNAc(b1-4)][Neu5Ac(a2-3)Gal(b1-4)GlcNAc(b1-2)[Neu5Ac(a2-3)Gal(b1-4)GlcNAc(b1-6)]Man(a1-6)]Man(b1-4)GlcNAc(b1-4)GlcNAc
# How it was run: (§1)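 From the Consortium for Functional Glycomics database, 3228 arrays were curated, keeping only those whose protein sequence was available. Binding is given as a within-array Z-score averaged across arrays sharing a protein sequence and across linkers. Negative Z-scores can be read as non-binding.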
# [2] = molecular target: Neu5Ac(a2-3)Gal(b1-4)GlcNAc(b1-2)[Neu5Ac(a2-3)Gal(b1-4)GlcNAc(b1-4)]Man(a1-3)[GlcNAc(b1-4)][Neu5Ac(a2-3)Gal(b1-4)GlcNAc(b1-4)Man(a1-6)]Man(b1-4)GlcNAc(b1-4)GlcNAc
# How it was run: as §1
# [3] = molecular target: Neu5Ac(a2-3)Gal(b1-4)GlcNAc(b1-2)[Neu5Ac(a2-3)Gal(b1-4)GlcNAc(b1-6)]Man(a1-6)[Neu5Ac(a2-3)Gal(b1-4)GlcNAc(b1-2)Man(a1-3)][GlcNAc(b1-4)]Man(b1-4)GlcNAc(b1-4)GlcNAc
# How it was run: as §1
# [4] = molecular target: Neu5Ac(a2-3)Gal(b1-4)GlcNAc(b1-3)Gal
# How it was run: as §1
# [5] = molecular target: Neu5Ac(a2-3)Gal(b1-4)GlcNAc(b1-3)Gal(b1-3)GlcNAc
# How it was run: as §1
# [6] = molecular target: Neu5Ac(a2-3)Gal(b1-4)GlcNAc(b1-3)Gal(b1-4)GlcNAc
# How it was run: as §1
# [7] = molecular target: Neu5Ac(a2-3)Gal(b1-4)GlcNAc(b1-3)Gal(b1-4)GlcNAc(b1-2)Man(a1-3)[Neu5Ac(a2-3)Gal(b1-4)GlcNAc(b1-3)Gal(b1-4)GlcNAc(b1-2)Man(a1-6)]Man(b1-4)GlcNAc(b1-4)GlcNAc
# How it was run: as §1
# [8] = molecular target: Neu5Ac(a2-3)Gal(b1-4)GlcNAc(b1-3)Gal(b1-4)GlcNAc(b1-3)Gal(b1-4)GlcNAc
# How it was run: as §1
# [9] = molecular target: Neu5Ac(a2-3)Gal(b1-4)GlcNAc(b1-3)Gal(b1-4)GlcNAc(b1-3)Gal(b1-4)GlcNAc(b1-2)Man(a1-3)[Neu5Ac(a2-3)Gal(b1-4)GlcNAc(b1-3)Gal(b1-4)GlcNAc(b1-3)Gal(b1-4)GlcNAc(b1-2)Man(a1-6)]GalNAc
# How it was run: as §1
# [10] = molecular target: Neu5Ac(a2-3)Gal(b1-4)GlcNAc(b1-3)Gal(b1-4)GlcNAc(b1-3)GalNAc
# How it was run: as §1
# [11] = molecular target: Neu5Ac(a2-3)Gal(b1-4)GlcNAc(b1-3)Gal(b1-4)GlcNAc(b1-3)[Neu5Ac(a2-3)Gal(b1-4)GlcNAc(b1-3)Gal(b1-4)GlcNAc(b1-6)]GalNAc
# How it was run: as §1
# [12] = molecular target: Neu5Ac(a2-3)Gal(b1-4)GlcNAc(b1-3)Gal(b1-4)GlcNAc(b1-6)[Gal(b1-3)]GalNAc
# How it was run: as §1
# [13] = molecular target: Neu5Ac(a2-3)Gal(b1-4)GlcNAc(b1-3)Gal(b1-4)[Fuc(a1-3)]GlcNAc
# How it was run: as §1
# [14] = molecular target: Neu5Ac(a2-3)Gal(b1-4)GlcNAc(b1-3)GalNAc
# How it was run: as §1
# [15] = molecular target: Neu5Ac(a2-3)Gal(b1-4)GlcNAc(b1-3)[Neu5Ac(a2-3)Gal(b1-4)GlcNAc(b1-6)]GalNAc
# How it was run: as §1
# [16] = molecular target: Neu5Ac(a2-3)Gal(b1-4)GlcNAc(b1-6)GalNAc
# How it was run: as §1
# [17] = molecular target: Neu5Ac(a2-3)Gal(b1-4)GlcNAc(b1-6)[Gal(b1-3)]GalNAc
# How it was run: as §1
# [18] = molecular target: Neu5Ac(a2-3)Gal(b1-4)GlcNAc(b1-6)[Neu5Ac(a2-3)Gal(b1-3)]GalNAc
# How it was run: as §1
# [19] = molecular target: Neu5Ac(a2-3)Gal(b1-4)GlcNAc6S
# How it was run: as §1
# [20] = molecular target: Neu5Ac(a2-3)Gal(b1-4)[Fuc(a1-3)]GlcNAc
# How it was run: as §1
# [21] = molecular target: Neu5Ac(a2-3)Gal(b1-4)[Fuc(a1-3)]GlcNAc(b1-2)Man
# How it was run: as §1
# [22] = molecular target: Neu5Ac(a2-3)Gal(b1-4)[Fuc(a1-3)]GlcNAc(b1-3)Gal
# How it was run: as §1
# [23] = molecular target: Neu5Ac(a2-3)Gal(b1-4)[Fuc(a1-3)]GlcNAc(b1-3)Gal(b1-4)GlcNAc
# How it was run: as §1
# [24] = molecular target: Neu5Ac(a2-3)Gal(b1-4)[Fuc(a1-3)]GlcNAc(b1-3)Gal(b1-4)[Fuc(a1-3)]GlcNAc(b1-3)Gal(b1-4)[Fuc(a1-3)]GlcNAc
# How it was run: as §1
# [25] = molecular target: Neu5Ac(a2-3)Gal(b1-4)[Fuc(a1-3)]GlcNAc(b1-3)GalNAc
# How it was run: as §1
# [26] = molecular target: Neu5Ac(a2-3)Gal(b1-4)[Fuc(a1-3)]GlcNAc(b1-6)[Gal(b1-3)]GalNAc
# How it was run: as §1
# [27] = molecular target: Neu5Ac(a2-3)Gal(b1-4)[Fuc(a1-3)]GlcNAc(b1-6)[Neu5Ac(a2-3)Gal(b1-3)]GalNAc
# How it was run: as §1
# [28] = molecular target: Neu5Ac(a2-3)Gal(b1-4)[Fuc(a1-3)]GlcNAc6S
# How it was run: as §1
# [29] = molecular target: Neu5Ac(a2-3)Gal6S(b1-4)GlcNAc
# How it was run: as §1
# [30] = molecular target: Neu5Ac(a2-3)Gal6S(b1-4)[Fuc(a1-3)]GlcNAc
# How it was run: as §1
# [31] = molecular target: Neu5Ac(a2-3)GalNAc
# How it was run: as §1
# [32] = molecular target: Neu5Ac(a2-3)GalNAc(b1-4)GlcNAc
# How it was run: as §1
# [33] = molecular target: Neu5Ac(a2-3)[GalNAc(b1-4)]Gal(b1-4)Glc
# How it was run: as §1
# [34] = molecular target: Neu5Ac(a2-3)[GalNAc(b1-4)]Gal(b1-4)GlcNAc
# How it was run: as §1
# [35] = molecular target: Neu5Ac(a2-3)[GalNAc(b1-4)]Gal(b1-4)GlcNAc(b1-3)GalNAc
# How it was run: as §1
# [36] = molecular target: Neu5Ac(a2-3)[Neu5Ac(a2-6)]GalNAc
# How it was run: as §1
# [37] = molecular target: Neu5Ac(a2-6)Gal
# How it was run: as §1
binder,measurement,setting,value
Clec39 (Caenorhabditis elegans) (protein) MTSFYDNSSSSSKPVPLKTSRAQKIQILIFDNWKLILYGAISTLILVLAIMFSTLFFALPAANCDENSEPTKYYTTNAEITTTITTTNQKTTSTASSHLTTISSSATQIYSESSSSSTSQSTFTQSPPEISTTTIAPSDFSCQHGFTLVNNKCWKLVTSNQARPDADKICNGYGGATLFSIKSEQDNRAMIHFVKGQDIDFLWSGLLCSAGEPISCIWDIENGSTANYSNFADGFPNIVYGNCVYFITSGDEAGQWGNEQCGQVMNFVCELPATFQGKDGCKNNYEKSCYLRFDLNLTVPQAQNFCLEKCANLVSIHSANEVRFIMTIYDFIGEILIGALAPAQDFIYWLDGTPANYNNLKFFYNSTCVHMTVAPGMQNVGKWFTRFCTETGKFLCKRSIKNSCT,glycan array binding signal (z-score),[1],0.721
same,glycan array binding signal (z-score),[2],0.098
same,glycan array binding signal (z-score),[3],0.185
same,glycan array binding signal (z-score),[4],-0.762
same,glycan array binding signal (z-score),[5],-0.058
same,glycan array binding signal (z-score),[6],-0.74
same,glycan array binding signal (z-score),[7],1.74
same,glycan array binding signal (z-score),[8],-0.416
same,glycan array binding signal (z-score),[9],0.509
same,glycan array binding signal (z-score),[10],-0.485
same,glycan array binding signal (z-score),[11],-0.101
same,glycan array binding signal (z-score),[12],-0.438
same,glycan array binding signal (z-score),[13],-1.5
same,glycan array binding signal (z-score),[14],1.61
same,glycan array binding signal (z-score),[15],1.14
same,glycan array binding signal (z-score),[16],-0.522
same,glycan array binding signal (z-score),[17],1.06
same,glycan array binding signal (z-score),[18],-0.555
same,glycan array binding signal (z-score),[19],0.418
same,glycan array binding signal (z-score),[20],-0.235
same,glycan array binding signal (z-score),[21],-0.505
same,glycan array binding signal (z-score),[22],-0.207
same,glycan array binding signal (z-score),[23],1.57
same,glycan array binding signal (z-score),[24],-0.512
same,glycan array binding signal (z-score),[25],4.34
same,glycan array binding signal (z-score),[26],1.91
same,glycan array binding signal (z-score),[27],0.446
same,glycan array binding signal (z-score),[28],-0.929
same,glycan array binding signal (z-score),[29],1.54
same,glycan array binding signal (z-score),[30],-1.24
same,glycan array binding signal (z-score),[31],-0.835
same,glycan array binding signal (z-score),[32],-0.703
same,glycan array binding signal (z-score),[33],-0.207
same,glycan array binding signal (z-score),[34],-0.404
same,glycan array binding signal (z-score),[35],-0.314
same,glycan array binding signal (z-score),[36],0.091
same,glycan array binding signal (z-score),[37],-1.34

# A different layout for part of the listing above:
binder | measurement | setting | value
Clec39 (Caenorhabditis elegans) (protein) MTSFYDNSSSSSKPVPLKTSRAQKIQILIFDNWKLILYGAISTLILVLAIMFSTLFFALPAANCDENSEPTKYYTTNAEITTTITTTNQKTTSTASSHLTTISSSATQIYSESSSSSTSQSTFTQSPPEISTTTIAPSDFSCQHGFTLVNNKCWKLVTSNQARPDADKICNGYGGATLFSIKSEQDNRAMIHFVKGQDIDFLWSGLLCSAGEPISCIWDIENGSTANYSNFADGFPNIVYGNCVYFITSGDEAGQWGNEQCGQVMNFVCELPATFQGKDGCKNNYEKSCYLRFDLNLTVPQAQNFCLEKCANLVSIHSANEVRFIMTIYDFIGEILIGALAPAQDFIYWLDGTPANYNNLKFFYNSTCVHMTVAPGMQNVGKWFTRFCTETGKFLCKRSIKNSCT | glycan array binding signal (z-score) | [26] | 1.91
same | glycan array binding signal (z-score) | [33] | -0.207
